Among the data in paper PMC3742539, “ε Subunit of Bacillus subtilis F1-ATPase Relieves MgADP Inhibition” (PLoS ONE, 2013) are binding values, retold here.

Experiment [1] concerns the target mutant (γ^S3C) α3β3γ complex of BF1 (Bacillus subtilis) (UniProt P37808+P37809+P37810). Put plainly: cross-linking; disulfide cross-linking without ATP: α3β3γ^S3C and ε^133C mixed 1:10, excess ε removed by ultrafiltration (100-kDa cutoff), 50 µM CuCl2, 1 h, 25 °C, 50 mM Tris-H2SO4 pH 7.5, 50 mM K2SO4; non-reducing SDS-PAGE; both purified.
For experiment [2], the target named is β subunit of BF1 with His6-tag at the N-terminus (Bacillus subtilis) (UniProt P37809). Put plainly: co-purification (HisTrap by His6-β, then Superdex 200 gel filtration); subunits co-expressed in E. coli; buffer A 20 mM Tris-H2SO4 pH 7.5, 300 mM K2SO4, 30 mM imidazole; 25 °C. In general terms: Size exclusion chromatography separates by hydrodynamic size, large species first.

Experiment [3] addresses α3β3γ complex of F1-ATPase from Bacillus subtilis (BF1), WT (Bacillus subtilis) (UniProt P37808+P37809+P37810). As to the kind of experiment: SEC; gel-filtration HPLC (Superdex 200 10/300GL), also in the presence of ATP and/or LDAO; data not shown; both purified.

No constants are given. Whether binding was seen depends on the method and setting. Some results given as binding are weak or reduced against the parent protein; the word gives no strength.

In the case of “mutant BF1 ε subunit (133C, a Cys introduced at the C-terminus) (from UniProt P37812 1-132)”, in experiment [1], the binding result is “binds”.

As for “α subunit of BF1 (from UniProt P37808 1-502)”, the binding entry in experiment [2] was “binds”.

Turning to “γ subunit of BF1, WT (from UniProt P37810 1-287)”, the binding result in experiment [2] is “binds”.

For the substance “γ^S3C subunit of BF1 (from UniProt P37810 1-287)”, in experiment [2], the binding entry is listed as “binds”.

In the case of “ε subunit of BF1 (Bacillus subtilis F1-ATPase), WT (from UniProt P37812 1-132)”, in experiment [3], the binding entry was “binds”.
